Measured values from US7097987.
No constants are given. Whether binding was seen depends on the method and setting. Some entries that bind do so weakly or less than the wild type.

What was measured:
[1] = target: T1, human CD81 (TAPA-1) (human) (UniProt P60033); test: flow cytometry competition on B cells, % inhibition of mean fluorescence intensity
T1 sequence: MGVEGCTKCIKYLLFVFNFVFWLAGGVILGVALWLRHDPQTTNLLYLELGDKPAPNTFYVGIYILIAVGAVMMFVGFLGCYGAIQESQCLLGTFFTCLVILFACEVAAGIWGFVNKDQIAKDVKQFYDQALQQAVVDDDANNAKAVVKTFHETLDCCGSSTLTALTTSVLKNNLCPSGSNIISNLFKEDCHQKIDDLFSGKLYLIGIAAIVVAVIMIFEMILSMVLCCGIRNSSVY

[2] = target: T1, human CD81 (TAPA-1) (human); test: WOP transfectants; insert of clone P3 sequenced and found identical to human CD81
[3] = target: T1, human CD81 (TAPA-1) (human); test: Far Western blot with 1 µg/ml recombinant E2 on A2A6 membrane proteins immunoprecipitated with JS81; detected with 291A2
[4] = target: T1, human CD81 (TAPA-1) (human); test: flow cytometry competition on EBV-B cells; competitor of JS-81 staining
[5] = target: T1, human CD81 (TAPA-1) (human); test: flow cytometry on WOP cells transfected with cDNA clone P3; E2-CHO detected with 291A2 and PE-conjugated anti-mouse Ig
[6] = target: T1, human CD81 (TAPA-1) (human); test: immunohistochemical staining of fresh lymphocytes and hepatocytes

Measured: binding

recombinant HCV E2 envelope protein produced in CHO cells (E2-CHO) (from UniProt P26664 384-715) (ligand)
binds: all assays above
